These are yes or no findings as the source states them, for the method shown. Binding seen in cells or lysates may run through a third protein. Some results given as binding are weak or reduced against the parent protein; the word gives no strength.
Molecular target: microtubule-associated serine/threonine kinase 1 (MAST1) (human (endogenous in A549)) (UniProt Q9Y2H9)
Assay: co-IP; cell lysates (IP lysis buffer) incubated overnight at 4°C with anti-MAST1 (sc-373845), IgG as negative control, Protein A/G beads 2 h at 4°C; Western blot for Hsp90β, MAST1, CHIP and ubiquitin; CD133- and CD133+ A549 cells (Fig. 4e) and sorted A549 cells transduced with vector, oe-CHIP or oe-CHIP+oe-Hsp90β (Fig. 4g)

Sequences of proteins named here, by UniProt entry; tags and fusion partners are left off.
UniProt Q9Y2H9: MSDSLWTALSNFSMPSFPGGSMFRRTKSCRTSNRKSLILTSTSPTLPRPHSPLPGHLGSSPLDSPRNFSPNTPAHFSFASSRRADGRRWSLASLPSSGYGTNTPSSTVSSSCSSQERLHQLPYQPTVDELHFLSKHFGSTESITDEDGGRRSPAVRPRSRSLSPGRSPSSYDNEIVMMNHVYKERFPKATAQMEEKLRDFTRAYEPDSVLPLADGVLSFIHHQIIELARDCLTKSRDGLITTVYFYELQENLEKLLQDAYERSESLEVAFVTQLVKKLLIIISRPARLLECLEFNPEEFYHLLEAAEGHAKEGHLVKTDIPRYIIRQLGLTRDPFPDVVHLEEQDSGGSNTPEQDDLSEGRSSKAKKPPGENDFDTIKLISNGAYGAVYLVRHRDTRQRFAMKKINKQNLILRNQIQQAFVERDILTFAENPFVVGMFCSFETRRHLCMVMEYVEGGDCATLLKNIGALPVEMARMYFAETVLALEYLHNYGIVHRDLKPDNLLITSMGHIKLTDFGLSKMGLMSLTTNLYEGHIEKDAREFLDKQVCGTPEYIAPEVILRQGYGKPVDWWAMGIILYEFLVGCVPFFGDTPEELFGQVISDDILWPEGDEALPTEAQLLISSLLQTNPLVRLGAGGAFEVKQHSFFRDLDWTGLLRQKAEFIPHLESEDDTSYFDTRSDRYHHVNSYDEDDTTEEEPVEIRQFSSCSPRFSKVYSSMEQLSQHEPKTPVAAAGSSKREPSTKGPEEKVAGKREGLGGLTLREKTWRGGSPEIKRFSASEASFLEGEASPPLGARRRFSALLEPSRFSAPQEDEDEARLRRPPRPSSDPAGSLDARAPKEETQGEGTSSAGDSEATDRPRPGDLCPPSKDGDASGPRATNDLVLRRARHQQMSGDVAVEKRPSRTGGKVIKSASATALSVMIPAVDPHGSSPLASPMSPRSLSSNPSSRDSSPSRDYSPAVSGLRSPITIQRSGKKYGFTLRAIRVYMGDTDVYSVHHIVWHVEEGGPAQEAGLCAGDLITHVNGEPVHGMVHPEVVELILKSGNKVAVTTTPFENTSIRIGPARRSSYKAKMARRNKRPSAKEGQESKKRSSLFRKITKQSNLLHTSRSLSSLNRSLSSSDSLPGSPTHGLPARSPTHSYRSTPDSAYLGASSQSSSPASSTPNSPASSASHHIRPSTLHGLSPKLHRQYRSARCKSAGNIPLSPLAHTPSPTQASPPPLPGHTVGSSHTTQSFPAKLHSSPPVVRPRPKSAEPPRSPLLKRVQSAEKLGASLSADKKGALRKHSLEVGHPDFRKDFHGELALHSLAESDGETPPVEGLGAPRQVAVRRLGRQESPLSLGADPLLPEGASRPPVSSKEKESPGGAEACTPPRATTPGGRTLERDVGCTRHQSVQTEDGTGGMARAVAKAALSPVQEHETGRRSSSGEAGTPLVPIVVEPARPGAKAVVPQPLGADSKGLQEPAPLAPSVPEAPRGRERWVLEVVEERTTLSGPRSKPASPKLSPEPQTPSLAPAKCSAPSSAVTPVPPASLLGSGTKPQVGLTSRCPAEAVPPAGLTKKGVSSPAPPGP
UniProt P08238: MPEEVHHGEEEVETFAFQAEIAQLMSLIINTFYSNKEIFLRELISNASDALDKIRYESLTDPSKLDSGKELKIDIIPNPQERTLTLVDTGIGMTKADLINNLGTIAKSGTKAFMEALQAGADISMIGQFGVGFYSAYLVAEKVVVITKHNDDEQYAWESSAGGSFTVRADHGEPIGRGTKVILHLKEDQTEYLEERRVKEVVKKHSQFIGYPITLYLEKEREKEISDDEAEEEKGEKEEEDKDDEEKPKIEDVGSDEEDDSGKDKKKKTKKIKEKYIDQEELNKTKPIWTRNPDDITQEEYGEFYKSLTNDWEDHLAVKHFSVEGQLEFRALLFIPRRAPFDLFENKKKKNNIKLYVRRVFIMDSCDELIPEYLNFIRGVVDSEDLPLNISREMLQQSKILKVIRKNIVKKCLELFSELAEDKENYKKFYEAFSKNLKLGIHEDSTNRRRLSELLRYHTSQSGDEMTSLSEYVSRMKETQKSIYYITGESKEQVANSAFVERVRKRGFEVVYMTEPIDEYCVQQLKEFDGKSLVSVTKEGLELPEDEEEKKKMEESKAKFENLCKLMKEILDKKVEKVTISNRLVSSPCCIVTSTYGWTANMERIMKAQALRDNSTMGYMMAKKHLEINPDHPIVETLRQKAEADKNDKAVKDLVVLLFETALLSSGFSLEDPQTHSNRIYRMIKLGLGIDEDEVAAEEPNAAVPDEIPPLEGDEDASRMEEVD
UniProt Q9UNE7: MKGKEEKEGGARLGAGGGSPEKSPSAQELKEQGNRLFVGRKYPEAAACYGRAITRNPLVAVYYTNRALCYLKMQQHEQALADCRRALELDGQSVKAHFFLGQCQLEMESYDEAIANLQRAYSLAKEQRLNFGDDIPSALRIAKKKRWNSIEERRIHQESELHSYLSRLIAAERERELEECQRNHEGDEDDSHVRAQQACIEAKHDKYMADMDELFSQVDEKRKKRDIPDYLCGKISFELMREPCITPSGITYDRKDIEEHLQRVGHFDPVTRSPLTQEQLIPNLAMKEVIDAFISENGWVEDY

Substance | binding
heat-shock protein 90 beta (Hsp90β) (from UniProt P08238 1-724) | binds
carboxyl terminal of Hsp70-interacting protein (CHIP), E3 ubiquitin ligase (from UniProt Q9UNE7 1-303) (enzyme) | binds

From PMC9527118
